From the supplement of paper PMC12009310
Counter-ions that a name gives are not always drawn. ± gives the standard deviation of the averaged measurements. Some of the results follow. Plates or batches differ in their baseline, so values are only roughly comparable.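 The cells are a mouse kidney inner medullary collecting duct line, silenced either for the ciliary gene Rpgrip1l or with a non-targeting control siRNA.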

Legend:
[1] = tested on: mIMCD3; assay: robust z score of cell number vs plate controls; higher = more cells (less cytotoxic); conditions: 10 µM, 48 h
[2] = tested on: mIMCD3; assay: robust z score of cilia incidence (% cells with single cilium) vs plate controls; higher = more ciliated cells; conditions: 10 µM; 48 h; siRNA: siScr
[3] = tested on: mIMCD3; assay: robust z score of cilia incidence (% cells with single cilium) vs plate controls; higher = more ciliated cells (rescue of cilia loss); conditions: 10 µM; 48 h; siRNA: siRpgrip1l

Compound: CCCCC/C=C\C/C=C\C/C=C\C/C=C\CCCC(=O)Nc1ccc(O)cc1
- robust z score of cell number ([1]; siRNA: siRpgrip1l): -18.2 ± 13
- robust z score of cell number ([1]; siRNA: siScr): -5.24 ± 1
- robust z score of cilia incidence [2]: -0.659 ± 0.57
- robust z score of cilia incidence [3]: -17.7 ± 1.1

Compound: CC(N)Cc1c[nH]c2ccc(OCc3cccs3)cc12 (stereo not drawn) [BW 723C86 hydrochloride]
- robust z score of cell number ([1]; siRNA: siRpgrip1l): -16.8 ± 9
- robust z score of cell number ([1]; siRNA: siScr): 1.28 ± 2.2
- robust z score of cilia incidence [2]: -1.87 ± 1.7
- robust z score of cilia incidence [3]: -23.5 ± 4

Compound: Cc1ccc2c(c1)C1(CCN(CCc3nc(-c4ccccc4)oc3C)CC1)OC(=O)N2
- robust z score of cell number ([1]; siRNA: siRpgrip1l): -33 ± 11
- robust z score of cell number ([1]; siRNA: siScr): -144 ± 110
- robust z score of cilia incidence [2]: -57.2 ± 13
- robust z score of cilia incidence [3]: -54.7 ± 6.7

Compound: NC(=S)N/N=C/c1coc2ccccc2c1=O.[Cl][Cu][Cl]
- robust z score of cell number ([1]; siRNA: siRpgrip1l): -5.52 ± 4.4
- robust z score of cell number ([1]; siRNA: siScr): -5.048 ± 0.024
- robust z score of cilia incidence [2]: -7.82 ± 7.6
- robust z score of cilia incidence [3]: -4.24 ± 1.6

Compound: CN1C2CCC1CC(OC(c1ccccc1)c1ccc(Cl)cc1)C2 (stereo not drawn)
- robust z score of cell number ([1]; siRNA: siRpgrip1l): -30.7 ± 0.43
- robust z score of cell number ([1]; siRNA: siScr): -29.6 ± 15
- robust z score of cilia incidence [2]: -49.9 ± 7.6
- robust z score of cilia incidence [3]: -27.2 ± 6.2

Compound: CC[C@@H](CO)NC(=O)[C@@H]1C=C2c3cccc4c3c(cn4C)C[C@H]2N(C)C1 [Methysergide maleate]
- robust z score of cell number ([1]; siRNA: siRpgrip1l): -4.5 ± 0.97
- robust z score of cell number ([1]; siRNA: siScr): -5.19 ± 4.4
- robust z score of cilia incidence [2]: -0.552 ± 3
- robust z score of cilia incidence [3]: -9.57 ± 5.5

Compound: Cc1onc(O)c1CC(N)C(=O)O (racemic)
- robust z score of cell number ([1]; siRNA: siRpgrip1l): 8 ± 4.7
- robust z score of cell number ([1]; siRNA: siScr): -2.92 ± 2.8
- robust z score of cilia incidence [2]: 0.658 ± 0.83
- robust z score of cilia incidence [3]: -5.58 ± 0.9

Compound: CC(C)C[C@H]1C(=O)N2CCC[C@H]2[C@]2(O)O[C@](NC(=O)[C@@H]3C=C4c5cccc6[nH]c(Br)c(c56)C[C@H]4N(C)C3)(C(C)C)C(=O)N12 [Bromocriptine mesylate]
- robust z score of cell number ([1]; siRNA: siRpgrip1l): -86.7 ± 75
- robust z score of cell number ([1]; siRNA: siScr): -54.6 ± 30
- robust z score of cilia incidence [2]: -18.1 ± 4.5
- robust z score of cilia incidence [3]: -32 ± 17

Compound: C=C(C)CN1CC[C@@]23c4c5ccc(O)c4O[C@H]2c2[nH]c4ccccc4c2C[C@]3(O)C1C5 [SDM25N hydrochloride]
- robust z score of cell number ([1]; siRNA: siRpgrip1l): -300 ± 210
- robust z score of cell number ([1]; siRNA: siScr): -39.8 ± 9.5
- robust z score of cilia incidence [2]: -54.5 ± 10
- robust z score of cilia incidence [3]: -33.1 ± 12

Compound: C[C@@]12C(=O)OC(=O)[C@]1(C)[C@H]1CC[C@@H]2O1 [Cantharidin]
- robust z score of cell number ([1]; siRNA: siRpgrip1l): -192 ± 220
- robust z score of cell number ([1]; siRNA: siScr): -45 ± 11
- robust z score of cilia incidence [2]: -44.6 ± 17
- robust z score of cilia incidence [3]: -545 ± 310

Compound: O=C1NCN(c2ccccc2)C12CCN(CC1COc3ccccc3O1)CC2 (stereo not drawn) [Spiroxatrine]
- robust z score of cell number ([1]; siRNA: siRpgrip1l): -5.08 ± 7.8
- robust z score of cell number ([1]; siRNA: siScr): -3.37 ± 0.32
- robust z score of cilia incidence [2]: 1.16 ± 1.8
- robust z score of cilia incidence [3]: -11.7 ± 0.65

Compound: NCCc1c[nH]c2ccc(O)cc12 [Serotonin]
- robust z score of cell number ([1]; siRNA: siRpgrip1l): -8.91 ± 8.2
- robust z score of cell number ([1]; siRNA: siScr): -3.61 ± 2.4
- robust z score of cilia incidence [2]: -9.09 ± 9.2
- robust z score of cilia incidence [3]: -7.76 ± 1.6

Compound: C[N+]1(C)CCc2cc3c(cc2C1C1OC(=O)c2c1ccc1c2OCO1)OCO3 (single isomer, unassigned; (-)) [(-)-Bicuculline methobromide]
- robust z score of cell number ([1]; siRNA: siRpgrip1l): -1.42 ± 4.7
- robust z score of cell number ([1]; siRNA: siScr): -4.25 ± 0.11
- robust z score of cilia incidence [2]: -1.77 ± 2.9
- robust z score of cilia incidence [3]: -10.9 ± 3.6

Compound: CC(C)[C@@]1(NC(=O)[C@@H]2C[C@@H]3c4cccc5[nH]cc(c45)C[C@H]3N(C)C2)O[C@@]2(O)[C@@H]3CCCN3C(=O)[C@H](Cc3ccccc3)N2C1=O [Dihydroergocristine mesylate]
- robust z score of cell number ([1]; siRNA: siRpgrip1l): -73.5 ± 61
- robust z score of cell number ([1]; siRNA: siScr): -38.6 ± 23
- robust z score of cilia incidence [2]: -18.3 ± 4.3
- robust z score of cilia incidence [3]: -37.6 ± 20

Compound: CCN1C[C@]2(COC(=O)c3ccccc3N3C(=O)C[C@H](C)C3=O)CC[C@H](OC)[C@@]34[C@@H]5C[C@H]6[C@H](OC)[C@@H]5[C@](O)(C[C@@H]6OC)[C@](O)([C@@H](OC)[C@H]23)[C@@H]14 [Methyllycaconitine citrate]
- robust z score of cell number ([1]; siRNA: siRpgrip1l): -11.7 ± 12
- robust z score of cell number ([1]; siRNA: siScr): 2.65 ± 2.6
- robust z score of cilia incidence [2]: -0.0946 ± 0.012
- robust z score of cilia incidence [3]: -16.2 ± 0.88

Compound: CC(=O)N(C)c1cccc(-c2ccnc3c(C(=O)c4cccs4)cnn23)c1 [Indiplon]
- robust z score of cell number ([1]; siRNA: siRpgrip1l): -49.9 ± 67
- robust z score of cell number ([1]; siRNA: siScr): -1.17 ± 3.5
- robust z score of cilia incidence [2]: 0.68 ± 0.14
- robust z score of cilia incidence [3]: -11.2 ± 4.8

Compound: O=c1[nH]oc2c1CCNC2 [THIP hydrochloride]
- robust z score of cell number ([1]; siRNA: siRpgrip1l): 0.148 ± 0.88
- robust z score of cell number ([1]; siRNA: siScr): 2.72 ± 3.8
- robust z score of cilia incidence [2]: -1.02 ± 1.2
- robust z score of cilia incidence [3]: -5.93 ± 0.96
